# Measurements published in the supplement of paper PMC8728848.
# This is one part of the list.
# B1: MFG-E8 (Mus musculus), P21956 (protein)
# chain: MQVSRVLAALCGMLLCASGLFAASGDFCDSSLCLNGGTCLTGQDNDIYCLCPEGFTGLVCNETERGPCSPNPCYNDAKCLVTLDTQRGDIFTEYICQCPVGYSGIHCETETNYYNLDGEYMFTTAVPNTAVPTPAPTPDLSNNLASRCSTQLGMEGGAIADSQISASSVYMGFMGLQRWGPELARLYRTGIVNAWTASNYDSKPWIQVNLLRKMRVSGVMTQGASRAGRAEYLKTFKVAYSLDGRKFEFIQDESGGDKEFLGNLDNNSLKVNMFNPTLEAQYIKLYPVSCHRGCTLRFELLGCELHGCSEPLGLKNNTIPDSQMSASSSYKTWNLRAFGWYPHLGRLDNQGKINAWTAQSNSAKEWLQVDLGTQRQVTGIITQGARDFGHIQYVASYKVAHSDDGVQWTVYEEQGSSKVFQGNLDNNSHKKNIFEKPFMARYVRVLPVSWHNRITLRLELLGC
# Key:
# Assay in all cases: glycan array binding signal (z-score within array); higher = stronger binding
# Settings in all cases: glycan notation: IUPAC condensed, linker removed
# [1] = target: Man(a1-2)Man(a1-2)Man(a1-3)Man
# Outline: (§1)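 The binding signal is a Z-score computed within each array and averaged over linkers. Arrays of the same protein sequence at different concentrations or buffers were also averaged together. Data originate from 3228 arrays in the Consortium for Functional Glycomics database, kept only where the protein sequence was available.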
# [2] = target: Man(a1-2)Man(a1-2)Man(a1-6)[Man(a1-3)]Man
# Outline: as §1
# Man(a1-2)Man(a1-3)Man = target: Man(a1-2)Man(a1-3)Man
# Outline: as §1
# [3] = target: Man(a1-2)Man(a1-3)[Man(a1-2)Man(a1-6)]Man
# Outline: as §1
# [4] = target: Man(a1-2)Man(a1-3)[Man(a1-2)Man(a1-6)]Man(a1-6)[Man(a1-2)Man(a1-2)Man(a1-3)]Man
# Outline: as §1
# [5] = target: Man(a1-2)Man(a1-3)[Man(a1-2)Man(a1-6)]Man(a1-6)[Man(a1-2)Man(a1-2)Man(a1-3)]Man(b1-4)GlcNAc(b1-4)GlcNAc
# Outline: as §1
# [6] = target: Man(a1-2)Man(a1-3)[Man(a1-6)]Man(a1-6)[Man(a1-2)Man(a1-3)]Man(b1-4)GlcNAc(b1-4)GlcNAc
# Outline: as §1
# [7] = target: Man(a1-2)Man(a1-6)[Man(a1-3)]Man(a1-6)[Man(a1-2)Man(a1-2)Man(a1-3)]Man
# Outline: as §1
# [8] = target: Man(a1-2)Man(a1-6)[Man(a1-3)]Man(a1-6)[Man(a1-2)Man(a1-2)Man(a1-3)]Man(b1-4)GlcNAc(b1-4)GlcNAc
# Outline: as §1
# Man(a1-3)[Man(a1-6)]Man = target: Man(a1-3)[Man(a1-6)]Man
# Outline: as §1
# [9] = target: Man(a1-3)[Man(a1-6)]Man(a1-6)[Man(a1-2)Man(a1-3)]Man(b1-4)GlcNAc(b1-4)GlcNAc
# Outline: as §1
# [10] = target: Man(a1-3)[Man(a1-6)]Man(a1-6)[Man(a1-3)]Man
# Outline: as §1
# [11] = target: Man(a1-3)[Man(a1-6)]Man(a1-6)[Man(a1-3)]Man(b1-4)GlcNAc(b1-4)GlcNAc
# Outline: as §1
# [12] = target: Man(a1-3)[Man(a1-6)]Man(b1-4)GlcNAc(b1-4)GlcNAc
# Outline: as §1
# [13] = target: Man(a1-3)[Man(a1-6)]Man(b1-4)GlcNAc(b1-4)[Fuc(a1-6)]GlcNAc
# Outline: as §1
# Man(a1-6)Man = target: Man(a1-6)Man
# Outline: as §1
# Man(b1-4)GlcNAc = target: Man(b1-4)GlcNAc
# Outline: as §1
# MurNAc(b1-4)GlcNAc = target: MurNAc(b1-4)GlcNAc
# Outline: as §1
# Neu5Ac(a2-3)Gal = target: Neu5Ac(a2-3)Gal
# Outline: as §1
# [14] = target: Neu5Ac(a2-3)Gal(b1-3)GalNAc
# Outline: as §1
# [15] = target: Neu5Ac(a2-3)Gal(b1-3)GalNAc(b1-3)Gal(a1-4)Gal(b1-4)Glc
# Outline: as §1
# [16] = target: Neu5Ac(a2-3)Gal(b1-3)GalNAc(b1-4)Gal(b1-4)Glc
# Outline: as §1
# [17] = target: Neu5Ac(a2-3)Gal(b1-3)GalNAc(b1-4)[Neu5Ac(a2-3)]Gal(b1-4)Glc
# Outline: as §1
# [18] = target: Neu5Ac(a2-3)Gal(b1-3)GalNAc(b1-4)[Neu5Ac(a2-8)Neu5Ac(a2-3)]Gal(b1-4)Glc
# Outline: as §1
# [19] = target: Neu5Ac(a2-3)Gal(b1-3)GalNAc6S
# Outline: as §1
# [20] = target: Neu5Ac(a2-3)Gal(b1-3)GlcNAc
# Outline: as §1
# [21] = target: Neu5Ac(a2-3)Gal(b1-3)GlcNAc(b1-2)Man
# Outline: as §1
# [22] = target: Neu5Ac(a2-3)Gal(b1-3)GlcNAc(b1-2)Man(a1-3)[GlcNAc(b1-4)][Neu5Ac(a2-3)Gal(b1-3)GlcNAc(b1-2)Man(a1-6)]Man(b1-4)GlcNAc(b1-4)GlcNAc
# Outline: as §1
# [23] = target: Neu5Ac(a2-3)Gal(b1-3)GlcNAc(b1-2)Man(a1-3)[Neu5Ac(a2-3)Gal(b1-3)GlcNAc(b1-2)Man(a1-6)]Man(b1-4)GlcNAc(b1-4)GlcNAc
# Outline: as §1
# [24] = target: Neu5Ac(a2-3)Gal(b1-3)GlcNAc(b1-2)[Neu5Ac(a2-3)Gal(b1-3)GlcNAc(b1-4)]Man(a1-6)[Neu5Ac(a2-3)Gal(b1-3)GlcNAc(b1-2)Man(a1-3)]Man(b1-4)GlcNAc(b1-4)GlcNAc
# Outline: as §1
# [25] = target: Neu5Ac(a2-3)Gal(b1-3)GlcNAc(b1-3)Gal(b1-3)GlcNAc
# Outline: as §1
# [26] = target: Neu5Ac(a2-3)Gal(b1-3)GlcNAc(b1-3)Gal(b1-4)GlcNAc
# Outline: as §1
# [27] = target: Neu5Ac(a2-3)Gal(b1-3)GlcNAc(b1-3)GalNAc
# Outline: as §1
# [28] = target: Neu5Ac(a2-3)Gal(b1-3)GlcNAc(b1-6)GalNAc
# Outline: as §1
# [29] = target: Neu5Ac(a2-3)Gal(b1-3)GlcNAc6S
# Outline: as §1
# [30] = target: Neu5Ac(a2-3)Gal(b1-3)[Fuc(a1-4)]GlcNAc
# Outline: as §1
# [31] = target: Neu5Ac(a2-3)Gal(b1-3)[Fuc(a1-4)]GlcNAc(b1-3)Gal(b1-3)[Fuc(a1-4)]GlcNAc
# Outline: as §1
binder,measurement,setting,value
B1,glycan array binding signal (z-score),[1],-0.155
same,glycan array binding signal (z-score),[2],-0.25
same,glycan array binding signal (z-score),Man(a1-2)Man(a1-3)Man,-0.726
same,glycan array binding signal (z-score),[3],0.255
same,glycan array binding signal (z-score),[4],-0.501
same,glycan array binding signal (z-score),[5],0.008
same,glycan array binding signal (z-score),[6],0.395
same,glycan array binding signal (z-score),[7],-0.64
same,glycan array binding signal (z-score),[8],-0.244
same,glycan array binding signal (z-score),Man(a1-3)[Man(a1-6)]Man,-0.011
same,glycan array binding signal (z-score),[9],-0.088
same,glycan array binding signal (z-score),[10],-0.375
same,glycan array binding signal (z-score),[11],-0.41
same,glycan array binding signal (z-score),[12],-0.141
same,glycan array binding signal (z-score),[13],-0.452
same,glycan array binding signal (z-score),Man(a1-6)Man,-0.72
same,glycan array binding signal (z-score),Man(b1-4)GlcNAc,-0.591
same,glycan array binding signal (z-score),MurNAc(b1-4)GlcNAc,-0.693
same,glycan array binding signal (z-score),Neu5Ac(a2-3)Gal,-0.552
same,glycan array binding signal (z-score),[14],0.287
same,glycan array binding signal (z-score),[15],0.531
same,glycan array binding signal (z-score),[16],-0.256
same,glycan array binding signal (z-score),[17],0.863
same,glycan array binding signal (z-score),[18],-0.644
same,glycan array binding signal (z-score),[19],-0.149
same,glycan array binding signal (z-score),[20],0.101
same,glycan array binding signal (z-score),[21],-0.267
same,glycan array binding signal (z-score),[22],0.132
same,glycan array binding signal (z-score),[23],-0.096
same,glycan array binding signal (z-score),[24],0.988
same,glycan array binding signal (z-score),[25],-1.04
same,glycan array binding signal (z-score),[26],-0.63
same,glycan array binding signal (z-score),[27],0.592
same,glycan array binding signal (z-score),[28],0.107
same,glycan array binding signal (z-score),[29],-0.219
same,glycan array binding signal (z-score),[30],-0.423
same,glycan array binding signal (z-score),[31],-0.448

# Some of the entries so far, with tabs:
binder	measurement	setting	value
B1	glycan array binding signal (z-score)	Man(a1-3)[Man(a1-6)]Man	-0.011
same	glycan array binding signal (z-score)	[9]	-0.088
same	glycan array binding signal (z-score)	[10]	-0.375
same	glycan array binding signal (z-score)	[11]	-0.41
same	glycan array binding signal (z-score)	[12]	-0.141
same	glycan array binding signal (z-score)	[13]	-0.452
same	glycan array binding signal (z-score)	Man(a1-6)Man	-0.72
